Assay [1] concerns the target T1, Flag-PLK4 wt (polo-like kinase 4), full-length (human) (UniProt O00444).
T1 sequence: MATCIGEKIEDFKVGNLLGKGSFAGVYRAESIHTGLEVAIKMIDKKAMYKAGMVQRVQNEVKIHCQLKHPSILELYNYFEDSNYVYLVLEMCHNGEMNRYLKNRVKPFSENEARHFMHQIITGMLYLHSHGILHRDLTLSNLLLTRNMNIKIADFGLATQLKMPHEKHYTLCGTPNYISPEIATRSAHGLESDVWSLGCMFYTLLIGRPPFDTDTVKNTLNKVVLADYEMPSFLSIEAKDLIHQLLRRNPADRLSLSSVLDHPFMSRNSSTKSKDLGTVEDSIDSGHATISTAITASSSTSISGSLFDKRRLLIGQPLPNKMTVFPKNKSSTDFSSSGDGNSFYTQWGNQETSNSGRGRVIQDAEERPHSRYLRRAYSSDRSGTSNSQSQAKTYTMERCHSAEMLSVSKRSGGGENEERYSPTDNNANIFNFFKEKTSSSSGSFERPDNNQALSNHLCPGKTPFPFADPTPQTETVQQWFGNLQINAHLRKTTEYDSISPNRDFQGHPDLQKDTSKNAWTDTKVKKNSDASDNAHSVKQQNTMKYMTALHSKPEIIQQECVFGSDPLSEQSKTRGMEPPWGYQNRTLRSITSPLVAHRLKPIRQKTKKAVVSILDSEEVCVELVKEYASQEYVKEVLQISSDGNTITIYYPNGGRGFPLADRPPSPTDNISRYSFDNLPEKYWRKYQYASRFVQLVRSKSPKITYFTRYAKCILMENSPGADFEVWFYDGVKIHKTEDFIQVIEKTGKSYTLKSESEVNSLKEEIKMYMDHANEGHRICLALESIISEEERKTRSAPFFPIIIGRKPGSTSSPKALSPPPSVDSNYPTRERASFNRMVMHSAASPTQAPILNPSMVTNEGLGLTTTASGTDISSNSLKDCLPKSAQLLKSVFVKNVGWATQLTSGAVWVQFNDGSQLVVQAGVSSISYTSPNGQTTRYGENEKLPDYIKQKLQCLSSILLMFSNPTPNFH
As to the kind of experiment: co-IP; sequential: Flag-PLK4 and HA-DCAF1 overexpressed in HEK293T; IP against the Flag tag, Flag peptide elution, then IP against the HA tag from the eluates, Western blot. In general terms: A western blot detects proteins with antibodies after separation by electrophoresis.

By UniProt entry, the sequences of proteins in these tests, tags left out.
UniProt Q9Y4B6: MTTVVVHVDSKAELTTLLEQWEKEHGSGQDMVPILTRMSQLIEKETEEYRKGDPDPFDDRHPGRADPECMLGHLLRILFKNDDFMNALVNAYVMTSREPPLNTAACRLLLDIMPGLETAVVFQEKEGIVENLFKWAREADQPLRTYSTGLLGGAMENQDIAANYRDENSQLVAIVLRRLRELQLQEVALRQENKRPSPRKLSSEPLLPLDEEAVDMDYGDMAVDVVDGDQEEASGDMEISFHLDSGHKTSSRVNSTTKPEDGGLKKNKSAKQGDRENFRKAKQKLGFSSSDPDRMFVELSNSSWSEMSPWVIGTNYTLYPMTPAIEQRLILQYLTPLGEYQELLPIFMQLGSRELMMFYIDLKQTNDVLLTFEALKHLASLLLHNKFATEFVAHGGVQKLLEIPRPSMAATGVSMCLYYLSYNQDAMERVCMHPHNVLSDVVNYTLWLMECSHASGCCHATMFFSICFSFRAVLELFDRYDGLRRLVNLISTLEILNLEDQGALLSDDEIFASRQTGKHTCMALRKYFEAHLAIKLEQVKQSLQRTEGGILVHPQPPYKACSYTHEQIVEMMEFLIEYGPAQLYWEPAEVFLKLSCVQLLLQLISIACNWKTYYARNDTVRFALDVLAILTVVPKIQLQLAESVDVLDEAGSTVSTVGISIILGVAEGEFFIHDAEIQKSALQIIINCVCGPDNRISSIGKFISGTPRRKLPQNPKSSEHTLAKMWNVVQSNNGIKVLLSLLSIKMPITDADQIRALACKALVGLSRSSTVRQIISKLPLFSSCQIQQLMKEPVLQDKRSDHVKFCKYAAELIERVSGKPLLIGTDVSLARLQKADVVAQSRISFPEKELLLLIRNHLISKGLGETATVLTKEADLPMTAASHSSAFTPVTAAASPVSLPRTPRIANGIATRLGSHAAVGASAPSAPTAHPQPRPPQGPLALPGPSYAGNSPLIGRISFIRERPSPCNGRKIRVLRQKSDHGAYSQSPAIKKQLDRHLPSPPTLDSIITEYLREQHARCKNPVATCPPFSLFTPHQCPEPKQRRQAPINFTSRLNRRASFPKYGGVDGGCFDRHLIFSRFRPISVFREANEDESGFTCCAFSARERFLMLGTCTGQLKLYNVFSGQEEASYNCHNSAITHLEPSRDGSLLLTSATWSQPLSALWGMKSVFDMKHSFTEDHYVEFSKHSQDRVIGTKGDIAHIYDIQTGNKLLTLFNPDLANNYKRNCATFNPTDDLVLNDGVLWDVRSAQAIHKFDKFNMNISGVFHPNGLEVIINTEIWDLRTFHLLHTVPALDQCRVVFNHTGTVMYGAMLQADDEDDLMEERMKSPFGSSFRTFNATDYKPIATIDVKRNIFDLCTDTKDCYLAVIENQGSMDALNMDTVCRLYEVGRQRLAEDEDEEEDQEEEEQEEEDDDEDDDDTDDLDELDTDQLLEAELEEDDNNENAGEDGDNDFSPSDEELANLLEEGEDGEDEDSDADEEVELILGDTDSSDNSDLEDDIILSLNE

Assay [2] deals with T1, Flag-PLK4 wt (polo-like kinase 4), full-length (human). As to the kind of experiment: co-IP; Flag-tagged protein overexpressed in HEK293T; 3-6 mg cell extract in NP-40 buffer with α-Flag M2 beads, 3 h or overnight at 4°C, 3x Flag peptide elution, Western blot; also cells synchronized in G1/S or G2, siRNA against PLK4, or λ-phosphatase treatment of the immunoprecipitate.
The target of assay [3] is T2, Flag-PLK4-AA (S285A + T289A), β-TrCP-binding mutant (human) (UniProt O00444).
T2 sequence: T1 sequence with S285A, T289A
Described as above.

Assay [4] concerns the target T3, Flag-PLK4 K41R (kinase-dead) (human) (UniProt O00444).
T3 sequence: T1 sequence with K41R
The assay is described as above.

Another assay has as its target Flag-PLK4-ΔPEST (human) (UniProt O00444). The description is as above.

Changes are numbered by the printed parent chain. These are yes or no findings as the source states them, for the method shown. Binding seen in cells or lysates may run through a third protein. For part of these data: A result given as binding can be weak or reduced; the word gives no strength. For part of these data: Where a sequence is shown, tags or fusion partners need not be part of it.

As to “CUL4, endogenous (human (endogenous in HEK293T))”, the binding result in assay [1] and in assay [2] was “binds” throughout.

On to “β-TrCP, endogenous (human (endogenous in HEK293T))”, for which the binding entry is on record as “no binding” in assay [3], “no binding” in assay [4] and “binds” in assay [2].

Consider “DCAF1 (VprBP), endogenous (from UniProt Q9Y4B6 1-1507)”, for which the binding result with Flag-PLK4-ΔPEST (human) was “binds”.

The values above are taken from article PMC10942865.
